PubChem BioAssay AID1259297, Sanger Institute | 2017
Purpose: 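siRNA screen across the kinome seeking drug partners in cells of colorectal cancer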 (primary screen). System: human RCM1 colorectal cancer cell line. Reagent: siRNA pool against human genes. Challenge: separate arms: DMSO vehicle, or one anchor drug at a mild dose: BYL719 1 µM, cetuximab 5 µg/ml, trametinib 10 nM. Detection: 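Viability per well relative to a non-targeting pool, mean of replicates; robust z-score for knock-down alone; synergy score with BYL719, cetuximab or trametinib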. Scale: viability z-score, knock-down alone: higher = more viable cells than non-targeting controls. Rule for the call: 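Called essential if knock-down without drug gives a viability robust z-score under -3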. Meaning of the calls: active = essential when knocked down alone; inactive = no clear loss of viability alone.
Shown is an unselected part of 794 reagents. Of all reagents, 13 (1.6%) got an active call. 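Calls reflect knock-down without drug only; drug synergy is judged separately, with scores above 0.15 counted as synergy.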 Further read-outs or replicates are left out here. No sequences are given here. Not stated in the record: the amount of reagent, the time to read-out.

RIOK1 (RIO kinase 1) gave viability z-score, knock-down alone 0.0688; inactive. Against DMPK (DM1 protein kinase) the deposit lists viability z-score, knock-down alone 0.613; inactive. HUS1 (HUS1 checkpoint clamp component) showed viability z-score, knock-down alone 0.4; inactive. EFNA4 (ephrin A4) showed viability z-score, knock-down alone -0.628; inactive. For MAP3K8 (mitogen-activated protein kinase kinase kinase 8), the values are viability z-score, knock-down alone -1.4; inactive. After knock-down of CUL1 (cullin 1), the record shows viability z-score, knock-down alone 0.9; inactive.

With knock-down of NEK11 (NIMA related kinase 11), the screen gave viability z-score, knock-down alone -2.47; inactive. PIP4K2A (phosphatidylinositol-5-phosphate 4-kinase type 2 alpha) scored viability z-score, knock-down alone 0.9; inactive.

An excerpt of the results above:
RIOK1 (RIO kinase 1) → viability z-score, knock-down alone = 0.0688; call = inactive
DMPK (DM1 protein kinase) → viability z-score, knock-down alone = 0.613; call = inactive

More entries:
Against PRKAR2B the deposit lists viability z-score, knock-down alone -1.51; inactive. Against MAP3K4 (mitogen-activated protein kinase kinase kinase 4), the entry reads viability z-score, knock-down alone 0.9; inactive. GAK (cyclin G associated kinase) gave viability z-score, knock-down alone 0.9; inactive. Silencing of HASPIN (histone H3 associated protein kinase) resulted in: viability z-score, knock-down alone -0.196; inactive. Against ALPK1 (alpha kinase 1), the entry reads viability z-score, knock-down alone -0.329; inactive. Against TCF12 (transcription factor 12) the deposit lists viability z-score, knock-down alone 0.0273; inactive.

For BMP2K (BMP2 inducible kinase) the deposit lists viability z-score, knock-down alone 0.9; inactive. Knock-down of ELF3 (E74 like ETS transcription factor 3) came out at: viability z-score, knock-down alone -0.384; inactive. Silencing of PANK4 (pantothenate kinase 4 (inactive)) gave: viability z-score, knock-down alone -2.28; inactive. Silencing of TWF2 (twinfilin actin binding protein 2) came out at: viability z-score, knock-down alone 0.9; inactive. With knock-down of PANK3 (pantothenate kinase 3), the screen gave viability z-score, knock-down alone 0.627; inactive.
